{"sequences": {"note": "Amino acid sequences for entries named in this document (tags omitted).", "UniProt Q9Y6Q9": "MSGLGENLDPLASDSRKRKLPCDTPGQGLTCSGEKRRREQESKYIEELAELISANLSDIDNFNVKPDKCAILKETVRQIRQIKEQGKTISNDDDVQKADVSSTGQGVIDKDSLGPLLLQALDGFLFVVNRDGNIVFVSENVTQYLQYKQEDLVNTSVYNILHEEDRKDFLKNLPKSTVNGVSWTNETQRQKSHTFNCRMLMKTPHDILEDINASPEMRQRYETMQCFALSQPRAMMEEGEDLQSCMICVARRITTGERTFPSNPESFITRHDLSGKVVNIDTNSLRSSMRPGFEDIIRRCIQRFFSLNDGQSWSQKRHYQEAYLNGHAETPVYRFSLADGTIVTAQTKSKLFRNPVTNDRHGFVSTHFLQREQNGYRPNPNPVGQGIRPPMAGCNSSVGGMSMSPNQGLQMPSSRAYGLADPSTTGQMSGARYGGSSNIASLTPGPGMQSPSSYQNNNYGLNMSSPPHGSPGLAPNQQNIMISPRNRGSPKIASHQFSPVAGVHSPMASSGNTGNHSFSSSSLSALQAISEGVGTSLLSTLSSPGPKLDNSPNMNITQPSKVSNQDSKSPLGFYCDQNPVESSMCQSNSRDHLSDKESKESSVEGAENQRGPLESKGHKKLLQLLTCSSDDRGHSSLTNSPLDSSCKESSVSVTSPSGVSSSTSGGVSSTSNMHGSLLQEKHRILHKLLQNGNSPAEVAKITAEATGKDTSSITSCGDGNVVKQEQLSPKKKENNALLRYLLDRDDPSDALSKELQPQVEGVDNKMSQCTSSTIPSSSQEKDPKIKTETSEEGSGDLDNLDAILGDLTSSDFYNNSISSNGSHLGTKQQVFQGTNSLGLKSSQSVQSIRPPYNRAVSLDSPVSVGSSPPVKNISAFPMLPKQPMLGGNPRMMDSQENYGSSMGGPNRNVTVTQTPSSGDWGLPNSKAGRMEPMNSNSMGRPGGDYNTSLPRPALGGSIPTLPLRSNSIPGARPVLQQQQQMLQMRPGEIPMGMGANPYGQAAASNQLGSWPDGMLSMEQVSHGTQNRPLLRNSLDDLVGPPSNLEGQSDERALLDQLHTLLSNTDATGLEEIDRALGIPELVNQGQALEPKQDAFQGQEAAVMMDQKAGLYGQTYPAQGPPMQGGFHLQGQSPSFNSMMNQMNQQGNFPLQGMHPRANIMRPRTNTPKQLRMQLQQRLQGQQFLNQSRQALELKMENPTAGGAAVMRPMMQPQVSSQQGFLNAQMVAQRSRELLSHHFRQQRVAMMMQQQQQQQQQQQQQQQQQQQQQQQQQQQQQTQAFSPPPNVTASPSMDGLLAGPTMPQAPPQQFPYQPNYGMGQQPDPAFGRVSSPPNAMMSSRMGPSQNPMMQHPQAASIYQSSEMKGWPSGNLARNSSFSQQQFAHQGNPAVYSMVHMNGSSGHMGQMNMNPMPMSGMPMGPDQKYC", "UniProt P08047": "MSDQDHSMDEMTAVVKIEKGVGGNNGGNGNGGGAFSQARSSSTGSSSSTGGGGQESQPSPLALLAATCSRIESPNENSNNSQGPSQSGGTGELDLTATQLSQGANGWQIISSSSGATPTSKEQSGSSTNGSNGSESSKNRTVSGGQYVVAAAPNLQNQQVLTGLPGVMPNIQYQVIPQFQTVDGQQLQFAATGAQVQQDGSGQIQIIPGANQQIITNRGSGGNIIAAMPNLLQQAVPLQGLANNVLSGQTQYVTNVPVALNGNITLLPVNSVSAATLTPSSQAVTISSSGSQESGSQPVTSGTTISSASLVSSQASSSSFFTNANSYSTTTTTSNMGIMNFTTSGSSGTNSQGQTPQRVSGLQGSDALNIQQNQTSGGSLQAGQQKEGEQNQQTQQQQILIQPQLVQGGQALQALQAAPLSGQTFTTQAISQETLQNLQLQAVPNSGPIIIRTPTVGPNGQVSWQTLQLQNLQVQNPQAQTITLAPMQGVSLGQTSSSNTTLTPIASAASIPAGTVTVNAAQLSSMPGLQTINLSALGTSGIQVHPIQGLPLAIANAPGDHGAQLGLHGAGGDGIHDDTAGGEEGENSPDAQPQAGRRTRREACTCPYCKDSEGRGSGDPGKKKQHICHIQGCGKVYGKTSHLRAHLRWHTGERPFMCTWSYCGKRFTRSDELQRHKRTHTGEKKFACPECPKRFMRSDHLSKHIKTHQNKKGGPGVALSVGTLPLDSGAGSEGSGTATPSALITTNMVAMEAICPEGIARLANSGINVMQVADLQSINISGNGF"}, "source": "paper PMC7689448", "key": {"[1]": {"biological_target": "nuclear receptor coactivator-3 (NCOA3), endogenous (human (endogenous in Hep3B and HepG2)) (UniProt Q9Y6Q9)", "test": "co-IP; nuclear extracts of Hep3B and HepG2 cells with vector or NCOA3 overexpression; NCOA3 antibody and protein A/G agarose beads; SP1 detected by blot; IgG as negative control"}, "[2]": {"biological_target": "NCOA3, overexpressed from lentivirus pLV[Exp]-Puro-CMV-NCOA3-IRES:EGFP (human) (UniProt Q9Y6Q9)", "test": "co-IP; nuclear extracts of Hep3B and HepG2 cells with vector or NCOA3 overexpression; NCOA3 antibody and protein A/G agarose beads; SP1 detected by blot; IgG as negative control"}}, "note": "No constants are given. Whether binding was seen depends on the method and setting. Binding seen in cells or lysates may run through a third protein. Some entries that bind do so weakly or less than the wild type.", "data": [{"substance": "SP1, endogenous (from UniProt P08047 1-785)", "values": [{"measurement": "binding", "setting": "[1]", "value": "binds"}, {"measurement": "binding", "setting": "[2]", "value": "binds"}]}]}
